Experimental findings from PubChem BioAssay AID274 (DTP/NCI, 2004) are described below.

This assay relates to BDF1 mice, Lewis lung carcinoma iv, survival T/C. Briefly: NCI In Vivo Anticancer Drug Screen. Data for tumor model Lewis Lung Carcinoma (intravenous) in B6D2F1 (BDF1) mice. Conditions: T/C endpoint: median survival time, higher T/C = longer survival. On the procedure: The antitumor activity of compounds was measured in mice bearing transplantable tumors. Survival or tumor size were measured and the results are expressed as the measurement made in the treated group (T) divided by the measurement made in the vehicle treated control group (C). The tumor model used in this assay is Lewis Lung Carcinoma (intravenous) in B6D2F1 (BDF1) mice

Setting [1] is: dose: 100.0 mg/kg/injection, schedule: Q01DX009 (ip), vehicle: saline.
The mark [2] stands for this setting: dose: 200.0 mg/kg/injection, schedule: Q01DX009 (ip), vehicle: Klucel (hydroxypropylcellulose) (HPC).
Setting [3] is: dose: 400.0 mg/kg/injection, schedule: Q01DX009 (ip), vehicle: saline.
Where [4] appears, read: dose: 200.0 mg/kg/injection, schedule: Q01DX009 (ip), vehicle: saline.
Setting [5] is: dose: 50.0 mg/kg/injection, schedule: Q01DX009 (ip), vehicle: Klucel (hydroxypropylcellulose) (HPC).
[6] abbreviates: dose: 40.0 mg/kg/injection, schedule: Q01DX009 (ip), vehicle: Klucel (hydroxypropylcellulose) (HPC).
[7] abbreviates: dose: 100.0 mg/kg/injection, schedule: Q01DX009 (ip), vehicle: Klucel (hydroxypropylcellulose) (HPC).

Structures are written as SMILES. The list is a part of this screen's results and no random one: it is rich in T/C values a quarter to a half above the control, in often repeated tests (any T/C) and in doses without a T/C. Other doses and runs of a compound stand elsewhere. T/C is the treated group as % of the vehicle group. Some doses have a count of surviving animals in place of a T/C: the source files T/C as zero there, which appears to mark a toxic dose or a test without result, not a measured value. Some doses without a T/C left all or most animals alive at the check, yet need not have been tolerated: the source hardly ever lists a survival T/C far under the control, and the zero likely stands for such cases as well. Counts of survivors are from the toxicity check (mostly the fifth day) where no day follows; animals may have died later. Schedule codes are those of the source, taken here to give the interval after Q, in days (D) or hours (H), and the number of doses after X. Signs of the kind (2×) stand for listed records that agree. Some doses were run more than once; the values are given in rising order. Where survival is the endpoint, this PubChem deposit counts one and a half times the control or more as active, and values a quarter to a half above the control carry no call in these data; other NCI protocols may use other cut-offs.

With `CCC(C)n1ncc2c(N(C)C)ncnc21` (stereo not given), the survivor count under setting [1] was 9 of 10.
Turning to `CN(C)CCCNc1c2ccccc2nc2cccc([N+](=O)[O-])c12`, the survivor count by setting is: (dose: 74.6 micrograms/kg/injection, schedule: Q04DX003 (ip), vehicle: saline) 8 of 8; (dose: 576.0 micrograms/kg/injection, schedule: Q04DX003 (ip), vehicle: saline) 8 of 8; (dose: 960.0 micrograms/kg/injection, schedule: Q04DX003 (ip), vehicle: saline) 8 of 8; (dose: 1600.0 micrograms/kg/injection, schedule: Q04DX003 (ip), vehicle: saline) 8 of 8. Where the note is “dose: 207.0 micrograms/kg/injection, schedule: Q04DX003 (ip), vehicle: saline”, the T/C was 125 % of control.
As to `O=c1oc2c(O)c(O)cc3c(=O)oc4c(O)c(O)cc1c4c23`, the T/C under setting [2] is 126 % of control.
Consider `O=C(O)CP(=O)(O)O`, for which the T/C was 125 % of control under setting [3] and 131 % of control (dose: 800.0 mg/kg/injection, schedule: Q01DX009 (ip), vehicle: saline).
Regarding `O=NN(CCCl)C(=O)NC1[C@H](O)CCC[C@@H]1O` (stereo not given in full), the survivor count (dose: 10.0 mg/kg/injection, schedule: Q01DX009 (ip), vehicle: saline) is reported as 10 of 10 and the survivor count (dose: 20.0 mg/kg/injection, schedule: Q01DX009 (ip), vehicle: saline) is 10 of 10.
On to `CC1(C)COCN1COC1CCCCC1`, for which the survivor count under setting [4] was 0 of 10 and 10 of 10; the survivor count under setting [3] is 0 of 10 and 1 of 10.
With `C=CCNc1ccc(C)cc1`, the survivor count (dose: 12.5 mg/kg/injection, schedule: Q01DX009 (ip), vehicle: Klucel (hydroxypropylcellulose) (HPC)) is on record as 10 of 10; the survivor count (dose: 25.0 mg/kg/injection, schedule: Q01DX009 (ip), vehicle: Klucel (hydroxypropylcellulose) (HPC)) was 10 of 10; the survivor count under setting [5] is listed as 10 of 10; the survivor count under setting [2] is 8 of 10.
For the compound `O=C1C=CC(=O)N1c1ccc(Cl)cc1`, the survivor count (dose: 20.0 mg/kg/injection, schedule: Q01DX009 (ip), vehicle: Klucel (hydroxypropylcellulose) (HPC)) was 2 of 10 and the survivor count under setting [6] is given as 0 of 10.
`COc1ccc2nc3cc(Cl)ccc3c(NCCNCCNCCNc3c4ccc(Cl)cc4nc4ccc(OC)cc34)c2c1`: the survivor count runs as follows: under setting [5], 0 of 10; under setting [7], 0 of 10.
In the case of `COC1OC(CO)C(O)C(NC(=O)N(C)N=O)C1O` (stereo not given), the T/C by setting is: (dose: 50.0 mg/kg/injection, schedule: Q01DX009 (ip), vehicle: saline) 128 and 133 % of control; under setting [1], 138 % of control; under setting [4], 142 % of control. Moreover, the survivor count under setting [3] is 10 of 10 (2×).
`S=c1c2[nH]cnc2ncn1CCSC1=NC=NC2=NC=NC21` (stereo not given): the survivor count runs as follows: under setting [1], 3 of 10; under setting [4], 0 of 10; under setting [3], 0 of 10.
With `Nc1ccn(C2OC(COP(=O)(O)O)C(O)C2O)c(=O)n1` (stereo not given), the survivor count (dose: 64.0 mg/kg/injection, schedule: Q01DX009 (ip), vehicle: saline) is listed as 9 of 10 and the survivor count (dose: 128.0 mg/kg/injection, schedule: Q01DX009 (ip), vehicle: saline) was 10 of 10.
Regarding `S=P(N1CC1)(N1CC1)N1CC1`, the survivor count by setting is: (dose: 8.0 mg/kg/injection, schedule: Q01DX009 (ip), vehicle: saline with Tween-80) 9 of 10; (dose: 16.0 mg/kg/injection, schedule: Q01DX009 (ip), vehicle: saline with Tween-80) 10 of 10 (2×).
For `CC1CCC2(OC1)OC1CC3C4CCC5CC(O)CCC5(C)C4CCC3(C)C1C2C` (stereo not given), the survivor count reads like this: (dose: 10.0 mg/kg/injection, schedule: Q01DX009 (ip), vehicle: Klucel (hydroxypropylcellulose) (HPC)) 10 of 10; under setting [6], 10 of 10.
Regarding `COC1C(CO)OC(n2cnc3c(=S)nc(N)[nH]c32)C1O` (stereo not given), the survivor count under setting [2] is 10 of 10 and the survivor count (dose: 400.0 mg/kg/injection, schedule: Q01DX009 (ip), vehicle: Klucel (hydroxypropylcellulose) (HPC)) is reported as 10 of 10.
In the case of `CC(C)(C)N1CC1CNC(=O)C(=O)NCC1CN1C(C)(C)C` (stereo not given), under “dose: 25.0 mg/kg/injection, schedule: Q01DX009 (ip), vehicle: saline with Tween-80”, the survivor count was 10 of 10.
As for `CN(Cc1cnc2nc(N)nc(N)c2n1)c1ccc(C(=O)N[C@@H](CCC(=O)O)C(=O)O)cc1`, the survivor count reads like this: (dose: 1.8 mg/kg/injection, schedule: Q01DX021 (ip), vehicle: sodium bicarbonate) 8 of 8; (dose: 2.5 mg/kg/injection, schedule: Q04DX003 (ip), vehicle: sodium bicarbonate) 3 of 8 and 8 of 8; (dose: 4.0 mg/kg/injection, schedule: Q01DX009 (ip), vehicle: sodium bicarbonate) 10 of 10; (dose: 5.0 mg/kg/injection, schedule: Q04DX003 (ip), vehicle: sodium bicarbonate) 1 of 8 and 8 of 8; (dose: 8.0 mg/kg/injection, schedule: Q01DX009 (ip), vehicle: sodium bicarbonate) 9 of 10 and 10 of 10; (dose: 10.0 mg/kg/injection, schedule: Q04DX003 (ip), vehicle: sodium bicarbonate) 3 of 8 and 8 of 8. The survivor count is, setting by setting: (dose: 16.0 mg/kg/injection, schedule: Q01DX009 (ip), vehicle: sodium bicarbonate) 9 of 10; (dose: 20.0 mg/kg/injection, schedule: Q04DX003 (ip), vehicle: sodium bicarbonate) 2 of 8 and 8 of 8; (dose: 30.0 mg/kg/injection, schedule: Q04DX003 (ip), vehicle: sodium bicarbonate) 3 of 8; (dose: 50.0 mg/kg/injection, schedule: Q04DX003 (ip), vehicle: sodium bicarbonate) 8 of 8; (dose: 50.0 mg/kg/injection, schedule: Q04DX003 (iv), vehicle: sodium bicarbonate) 8 of 8. Besides, the T/C is, setting by setting: (dose: 2.0 mg/kg/injection, schedule: Q01DX009 (ip), vehicle: sodium bicarbonate) 147 % of control; (dose: 18.0 mg/kg/injection, schedule: Q04DX003 (ip), vehicle: sodium bicarbonate) 133 and 139 % of control; (dose: 18.0 mg/kg/injection, schedule: Q04DX006 (ip), vehicle: sodium bicarbonate) 128 % of control; (dose: 30.0 mg/kg/injection, schedule: Q04DX003 (ip), vehicle: sodium bicarbonate, evaluated on day 60) 87 and 123 % of control; (dose: 30.0 mg/kg/injection, schedule: Q04DX003 (ip), vehicle: sodium bicarbonate, evaluated on day 90) 125 and 165 % of control; (dose: 30.0 mg/kg/injection, schedule: Q04DX003 (iv), vehicle: sodium bicarbonate) 135 % of control.
Take `COC(=O)CC(N)C(=O)O` (stereo not given): the T/C (dose: 25.0 mg/kg/injection, schedule: Q01DX009 (ip), vehicle: saline) is 125 % of control.
For `[N-]=[N+]=C1N=CN=C1c1ncn[nH]1`, the survivor count under setting [7] was 3 of 10.
For the compound `C[C@H](N)C(=O)N[C@@H]1[C@H]2C(=C(O)C[C@@H](O)[C@@H]2O)C(=O)O[C@]1(C)C(Cl)Cl`, the survivor count is listed as 9 of 10 (dose: 3.0 mg/kg/injection, schedule: Q01DX009 (ip), vehicle: Klucel (hydroxypropylcellulose) (HPC)) and 5 of 10 (dose: 6.0 mg/kg/injection, schedule: Q01DX009 (ip), vehicle: Klucel (hydroxypropylcellulose) (HPC)).
Consider `O=C(O)C(CSC(c1ccccc1)(c1ccccc1)c1ccccc1)N=Cc1cccs1` (stereo not given), for which the survivor count runs as follows: under setting [1], 10 of 10; under setting [4], 10 of 10; under setting [3], 1 of 10.
As to `O=C(O)C1CC1.[Ag]`, the survivor count (dose: 25.0 mg/kg/injection, schedule: Q01DX009 (ip), vehicle: distilled water + Tween-80) is on record as 2 of 10.
On to `Nc1nc(N)c2c(Cl)c(CNc3ccc(Cl)c(Cl)c3)ccc2n1`, for which the survivor count (dose: 100.0 mg/kg/injection, schedule: Q01DX009 (ip), vehicle: saline with Tween-80) is listed as 10 of 10.
As to `c1cn[nH]c1`, the survivor count under setting [1] is listed as 10 of 10.
Consider `CCCCCCCCCCCC(c1ccccc1)[N+](C)(C)Cc1ccccc1` (stereo not given), for which the survivor count (dose: 4.0 mg/kg/injection, schedule: Q01DX009 (ip), vehicle: saline) is on record as 1 of 10.
